Data: PubChem BioAssay AID2685 (National Center for Advancing Translational Sciences (NCATS), 2010)
The other results are listed elsewhere or left out. Further columns of the screen follow, without active or inactive calls. Compounds called inactive in the main read-out are mostly missing here. Potencies come from curve fits of mixed quality, noted in brackets.

Test: qHTS Assay for Lipid Storage Modulators in Drosophila S3 Cells;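 as to cell number change: cells counted by Cell Tracker Red CMTPX staining in the red channel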
Conditions: BODIPY lipid droplet fluorescence, 18-24 h; for cell number change: measured here: cell count max response, cells fed with added oleic acid
Procedure, shortened: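 Drosophila S3 cells loaded with oleic acid (400 uM, as added) and compounds at several concentrations; lipid droplets imaged by 488-nm laser-scanning cytometry, 500–530 nm intensity and object ratio to cell channel. Percent activity normalized to 20 uM Triacsin C.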

[1] = measured here: cell number channel AC50, cells fed with added oleic acid
[2] = measured here: lipid fluorescence (Fed channel) AC50, cells fed with added oleic acid

| SMILES | cell number change | AC50 [1] | AC50 [2] |
| --- | --- | --- | --- |
| Cc1ccc(O)c(C(=O)CC(=O)c2cccc(F)c2)c1 | -36.9% | 29.1 µM [falling, single point] |  |
| COc1ccccc1C(=O)Nc1ccc2oc(-c3ccc(F)cc3)nc2c1 | -54.7% | 29.1 µM [falling, single point] |  |
| CC(Sc1nnc(NC2CCCCC2)s1)C(=O)N1CCOCC1 (stereo unspecified) | 1.34% |  | 23.1 µM [falling, partial curve] |
| C=CCn1c(SCC(=O)N2CCCCCC2)nc2ccccc2c1=O | 19.2% |  |  |
| COc1cc(/C=C(/C#N)c2ccccc2F)ccc1OCc1ccccc1 | -2.88% |  | 18.4 µM [falling, partial curve] |
| CC(O)c1n(C)c(Cl)c[n+]1C (stereo unspecified) | 6.51% |  | 18.4 µM [falling, single point] |
| CC(=O)Nc1ccc(Oc2ccc([N+](=O)[O-])cc2Cl)cc1 | -3.39% |  | 0.00461 µM [falling, full curve, poor fit] |
| COc1ccc(C2C=C(Nc3ccccc3)C(=O)N2c2ccccc2)cc1OC (stereo unspecified) | -18.9% | 1.3 µM [falling, full curve, poor fit] |  |
| O=C(NCc1ccc2c(c1)OCO2)C(=O)NC1CCCCC1 | 31.1% |  |  |
| Cc1ccc2c(c1)N(C(C)C(=O)NCCc1ccccc1)C(=O)CO2 (stereo unspecified) | 46.6% | 11.6 µM [rising, partial curve] | 0.731 µM [rising, full curve] |
| Cc1csc(N2CCCC2=O)n1 | 29.6% | 4.61 µM [rising, full curve, poor fit] | 2.06 µM [falling, partial curve] |
| CS(=O)(=O)N(CC(=O)N1CCN(c2ccccc2)CC1)C1CCCCC1 | 2.63% |  | 0.0058 µM [falling, full curve, poor fit] |
| Cc1cc(C(F)(F)F)c(C#N)c(SCC(=O)NC2CC2)n1 | 0.203% |  |  |
| O=c1[nH]c(C2CCN(S(=O)(=O)/C=C/c3ccccc3)CC2)nc2c1nnn2Cc1ccc(F)cc1 | -15.8% |  | 5.62 µM [rising, single point] |
| CC(=O)c1ccc(N2CCN(C(=O)C(=O)c3cn(CC(=O)N4CCCCCC4)c4ccccc34)CC2)cc1 |  |  | 18.4 µM [falling, partial curve, poor fit] |
| O=C1CN(C(=O)c2ccc(Cl)nc2)c2ccccc2N1 | -44.5% | 1.46 µM [falling, partial curve] |  |
| Nc1ncn(C23CC4CC(CC(C4)C2)C3)n1 |  |  | 5.8 µM [falling, single point] |
| COc1cccc(NC(=O)CCN2CCOCC2)c1 | 8.14% |  | 29.1 µM [rising, single point] |
| COc1ccc(-c2csc(NC(=S)NC(=O)c3ccco3)n2)cc1Br | 76.7% | 29.1 µM [rising, single point] | 20.6 µM [falling, single point] |
| Cn1c(=O)cc(OCCCC(=O)NCc2ccco2)c2ccccc21 |  | 0.651 µM [rising, single point] | 0.58 µM [rising, single point] |
| COc1ccc2cc(OCC(=O)NNC(=O)Nc3ccc(OC)c(OC)c3)ccc2c1 | 15.8% |  |  |
| CC(C)CC(NS(=O)(=O)c1ccc2c(c1)oc(=O)n2C)C(=O)N1CC=C(c2ccccc2)CC1 (stereo unspecified) | 37.2% | 0.058 µM [rising, full curve, poor fit] | 20.6 µM [rising, partial curve] |

Entries of single compounds, quoted from the list.
CC(O)c1n(C)c(Cl)c[n+]1C (stereo unspecified) is entered as cell number change: 6.51%; AC50 [2]: 18.4 µM [falling, single point]
COc1cccc(NC(=O)CCN2CCOCC2)c1 is entered as cell number change: 8.14%; AC50 [2]: 29.1 µM [rising, single point]
CC(=O)c1ccc(N2CCN(C(=O)C(=O)c3cn(CC(=O)N4CCCCCC4)c4ccccc34)CC2)cc1 is entered as AC50 [2]: 18.4 µM [falling, partial curve, poor fit]
CC(=O)Nc1ccc(Oc2ccc([N+](=O)[O-])cc2Cl)cc1 is entered as cell number change: -3.39%; AC50 [2]: 0.00461 µM [falling, full curve, poor fit]

(next part)

| SMILES | cell number change | AC50 [1] | AC50 [2] |
| --- | --- | --- | --- |
| O=C(Nc1nc(-c2ccccn2)cs1)c1cccc(-n2cnnn2)c1 | 0.851% |  |  |
| CCOC(=O)c1ccc(OCCOc2cccc(C)c2)cc1 | -4.99% |  | 29.1 µM [rising, single point] |
| CCn1c(SCC(=O)Nc2ccccc2C(=O)OC)nnc1-c1cccc(C)c1 |  |  | 0.231 µM [rising, full curve, poor fit] |
| COc1ccc2cc(CN(CCc3ccccc3)Cc3nnnn3CC3CCCO3)c(=O)[nH]c2c1 (stereo unspecified) | -23.6% |  | 4.61 µM [rising, partial curve] |
| O=C1CCCN=C(Nc2ccc(F)c(Cl)c2)S1 | 7.96% |  | 4.61 µM [rising, single point] |
| O=C(NCc1ccccn1)c1nc(-c2ccc(C(F)(F)F)cc2)no1 | 23.1% |  |  |
| CNC(=O)NCC12CC3CC(CC(C3)C1)C2 | -8.79% |  | 3.66 µM [falling, single point] |
| CC(C)[C@H](NC(=O)Nc1ccc(S(N)(=O)=O)cc1)C(=O)O | -0.866% |  | 0.517 µM [falling, full curve, poor fit] |
| CN(C)CCCN(C(=O)c1ccc2c(c1)CCCC2)c1nc2cc3c(cc2s1)OCO3 | -14.7% |  | 14.6 µM [falling, single point] |
| CN=C1SC(CC(=O)Nc2ccc(N3CCOCC3)cc2)C(=O)N1C (stereo unspecified) | -9.78% |  |  |
| COc1ccc(CC(=O)Oc2cc(C)[nH]c(=O)c2[N+](=O)[O-])cc1 | -3.77% |  |  |
| O=C(CSc1n[nH]c(-c2ccncc2)n1)NCCc1ccccc1 | -2.19% |  |  |
| CC(C)(C)NC(=O)COC(=O)c1ccc(S(=O)(=O)N2CCCCCC2)cc1 | -21.8% |  |  |
| O=C(c1cc(S(=O)(=O)N2CCCC2)c(Cl)cc1Cl)N1CCCC1 | -4.78% |  |  |
| Cc1cc(Cl)ccc1OCC(=O)N(Cc1cccs1)C1CCS(=O)(=O)C1 (stereo unspecified) | 2.25% |  | 6.51 µM [rising, single point] |
| CC(C)CC(NC(=O)c1ccc(Cl)cc1)C(=O)OCC(=O)c1ccc2c(c1)NC(=O)CO2 (stereo unspecified) | -62.9% | 2.31 µM [falling, full curve] | 0.58 µM [falling, single point] |
| CCn1ncc(NC(=O)Nc2cccc(C(F)(F)F)c2)c1C(N)=O | -14% |  |  |
| COc1cc(/C=C/C(=O)O)cc(S(=O)(=O)N2CCc3ccccc3C2)c1OC | -26.4% |  | 29.1 µM [falling, partial curve, poor fit] |
| Cc1ccc(-c2[nH]ncc2CNCCc2cnn(-c3ccccc3)c2)cc1C | -53.2% | 16.4 µM [falling, single point] | 29.1 µM [falling, single point] |
| COc1ccc(C(=O)NC2CC2)cc1OC1CCN(Cc2cc(C)cc(C)c2)CC1 | -23.8% |  |  |
| Cc1ccc2c(c1)/C(=N/OC(=O)c1ccc(F)cc1)CCS2 | -5.89% |  | 5.17 µM [falling, single point] |
| O=C(Cn1nnc(-c2ccccc2)n1)N/N=C/c1cccc([N+](=O)[O-])c1 | 16.1% |  |  |

| SMILES | cell number change | AC50 [1] | AC50 [2] |
| --- | --- | --- | --- |
| Cc1ccc(C(=O)NCc2ccc(Cl)cc2)cc1S(=O)(=O)N1CCCCC1 | -3.58% |  |  |
| COc1ccc(-c2ccc(OC)c([C@H]3[C@H]4C=CC[C@@H](C)[C@@H]4C(=O)N3Cc3ccccc3)c2)cc1OC | 7.48% |  | 1.64 µM [rising, partial curve] |
| COc1ccc(C(=O)NNC(=O)C(NC(=O)c2cc(OC)cc(OC)c2)C(C)C)cc1 (stereo unspecified) |  |  | 7.31 µM [rising, partial curve] |
| CCC(C)Sc1cccc(-c2nc3ccc(C)cn3c2NCc2ccccc2)c1 (stereo unspecified) | -90.8% | 23.1 µM [falling, single point] | 6.51 µM [falling, single point] |
| Cc1ccc(-n2ncc3c2CC(C)(C)CC3NC(=O)c2ccc[n+]([O-])c2)cc1 (stereo unspecified) | 40.7% |  | 13 µM [rising, partial curve] |
| COC(=O)c1ccccc1NC(=O)Cn1c(=O)oc2ccc(Cl)cc21 | 37% | 5.17 µM [falling, single point] | 4.11 µM [rising, single point] |
| O=C(Cn1cnc2ccccc21)NCc1ccccc1 | -26.9% |  |  |
| COC(=O)c1ccc(CSc2nnc(C)n2N)o1 | -5.47% |  |  |
| Cc1sc2nc(SCC(=O)NCCOCCO)n(C)c(=O)c2c1C | -25.4% |  | 0.184 µM [rising, full curve, poor fit] |
| COc1cc(C)ccc1OCCOc1c(C)cccc1Cl | -32.3% |  | 0.092 µM [rising, full curve, poor fit] |
| Cc1nc(SCC(=O)N2CCOCC2)c2c(C)c(C)sc2n1 | -2.99% |  | 0.00461 µM [rising, full curve, poor fit] |
| CCOc1ccccc1CNC(=O)CCc1cn(C)c2ccccc12 | 17.7% |  | 6.51 µM [rising, single point] |
| O=C(Nc1cc(Br)ccc1O)C1CC(c2ccccc2Cl)=NO1 (stereo unspecified) | -48.1% | 23.1 µM [falling, single point] | 23.1 µM [falling, single point] |
| O=C(CCN1C(=O)c2ccccc2S1(=O)=O)NCc1ccccc1Cl | -38.9% | 20.6 µM [falling, single point] | 23.1 µM [falling, single point] |
| O=C(NCC1(N2CCCCC2)CCCCC1)c1ccc(S(=O)(=O)N2CCCC2)cc1 | 2.34% |  | 29.1 µM [rising, single point] |
| CCn1cc(/C=C2\SC(=O)N(CC(=O)Nc3ccc4c(c3)OCO4)C2=O)c2ccccc21 | -0.333% |  | 11.6 µM [rising, partial curve] |
| CN1CCCC(OC(=O)c2cccc(Br)c2)C1 (stereo unspecified) | 12% |  |  |
| O=C(C1CCCN(S(=O)(=O)c2cccc3nonc23)C1)N1CCN(c2ccccc2)CC1 (stereo unspecified) | 35.2% | 8.2 µM [rising, partial curve, poor fit] | 3.66 µM [rising, full curve] |
| CC(=O)Nc1ccc(S(=O)(=O)Nc2ccc(S(=O)(=O)Nc3nc(C)cc(C)n3)cc2)cc1 | 16.4% |  |  |
| COc1ccc(C2=NOC(Cn3nc(C(=O)O)cc3-c3ccccc3)C2)cc1 (stereo unspecified) | 13.2% |  | 0.517 µM [falling, full curve] |
